Results on one substance are retold here after article PMC10746258.

By UniProt entry, the sequences of proteins in these tests, tags left out.
UniProt P36402: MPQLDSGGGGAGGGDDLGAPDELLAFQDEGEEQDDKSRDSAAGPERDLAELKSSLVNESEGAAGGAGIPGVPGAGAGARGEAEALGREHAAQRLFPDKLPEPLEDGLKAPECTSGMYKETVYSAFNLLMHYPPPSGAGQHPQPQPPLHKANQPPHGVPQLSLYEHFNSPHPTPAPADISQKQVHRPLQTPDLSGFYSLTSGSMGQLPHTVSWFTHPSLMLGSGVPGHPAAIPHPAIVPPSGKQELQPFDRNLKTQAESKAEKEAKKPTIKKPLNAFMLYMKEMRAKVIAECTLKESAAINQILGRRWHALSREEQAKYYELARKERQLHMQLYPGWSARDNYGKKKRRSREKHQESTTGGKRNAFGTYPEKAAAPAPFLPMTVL
UniProt P35222: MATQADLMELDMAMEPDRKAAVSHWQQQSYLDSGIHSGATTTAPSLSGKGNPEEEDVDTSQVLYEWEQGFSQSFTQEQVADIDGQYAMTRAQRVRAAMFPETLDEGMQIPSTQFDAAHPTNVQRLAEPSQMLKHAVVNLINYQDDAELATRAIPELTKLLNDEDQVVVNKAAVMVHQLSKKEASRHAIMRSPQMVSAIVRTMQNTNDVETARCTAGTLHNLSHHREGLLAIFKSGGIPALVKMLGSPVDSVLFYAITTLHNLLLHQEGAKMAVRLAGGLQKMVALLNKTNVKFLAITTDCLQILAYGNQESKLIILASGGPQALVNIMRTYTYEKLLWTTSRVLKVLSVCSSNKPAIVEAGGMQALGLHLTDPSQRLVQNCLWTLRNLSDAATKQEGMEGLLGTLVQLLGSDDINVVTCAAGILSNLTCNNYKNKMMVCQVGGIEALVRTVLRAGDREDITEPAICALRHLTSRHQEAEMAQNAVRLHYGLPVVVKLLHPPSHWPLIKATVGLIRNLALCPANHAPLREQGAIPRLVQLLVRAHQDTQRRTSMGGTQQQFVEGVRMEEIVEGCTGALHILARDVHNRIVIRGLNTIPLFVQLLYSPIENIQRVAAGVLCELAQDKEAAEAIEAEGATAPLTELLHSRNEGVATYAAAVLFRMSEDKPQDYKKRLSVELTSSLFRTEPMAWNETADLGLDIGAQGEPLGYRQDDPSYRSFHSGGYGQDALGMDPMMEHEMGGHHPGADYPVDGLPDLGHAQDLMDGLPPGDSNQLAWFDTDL

These are yes or no findings as the source states them, for the method shown. Binding seen in cells or lysates may run through a third protein. Some binding calls cover weakened binding; strength is not graded here.

The target in this test is TCF1 (human (endogenous in HEK 293T)) (UniProt P36402). Put plainly: co-IP.

As for “CTNNB1/β-catenin (from UniProt P35222 1-781)”, the binding result was “binds”.
